In test [1] the test system is mIMCD3. The experiment in a line: robust z score of cell number vs plate controls; higher = more cells (less cytotoxic). The settings on record: 10 µM, 48 h.
Test [2] deals with mIMCD3. The experiment in a line: robust z score of cilia incidence (% cells with single cilium) vs plate controls; higher = more ciliated cells. The settings on record: 10 µM; 48 h; siRNA: siScr.
Test [3] concerns mIMCD3. The experiment in a line: robust z score of cilia incidence (% cells with single cilium) vs plate controls; higher = more ciliated cells (rescue of cilia loss). To be noted: 10 µM; 48 h; siRNA: siRpgrip1l.

Where a name gives a salt, the structure may show the parent alone. ± gives the standard deviation of the averaged measurements. Some of the results follow. Baselines shift from plate to plate; read single values as rough.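 The cells are a mouse kidney inner medullary collecting duct line, silenced either for the ciliary gene Rpgrip1l or with a non-targeting control siRNA.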

Take `CC(C(O)c1ccc(O)cc1)N1CCC(Cc2ccccc2)CC1` (stereo not given) [Ifenprodil hemitartrate]: the “robust z score of cell number” value is -34.1 ± 20 in test [1] (siRNA: siRpgrip1l) and -63.3 ± 64 in test [1] (siRNA: siScr). Moreover, the “robust z score of cilia incidence” value is -14.7 ± 0.6 in test [2] and -44.8 ± 7.3 in test [3].
Turning to `CC[C@]1(O)C[C@@H]2CN(CCc3c([nH]c4ccccc34)[C@@](C(=O)OC)(c3cc4c(cc3OC)N(C)[C@H]3[C@@](O)(C(=O)OC)[C@H](OC(C)=O)[C@]5(CC)C=CCN6CC[C@]43[C@@H]65)C2)C1` [Vinblastine sulfate], the entries for the “robust z score of cell number” value in test [1] (siRNA: siRpgrip1l) and in test [1] (siRNA: siScr) were -23.3 ± 16 and -1.95 ± 0.8, respectively. Moreover, the “robust z score of cilia incidence” value in test [2] is 2.62 ± 2.4; in test [3], -7.82 ± 2.4.
On the same counts, the results for `FC(F)(F)c1ccc(/C=C/c2nc(COc3ccc(CCCCn4ccnn4)cc3)co2)cc1` are -34 ± 26, -3.2 ± 6.8, -0.483 ± 1 and -15.8 ± 9.1.
Turning to `NC(C(=O)O)c1ccc(C(=O)O)c(C(=O)O)c1` (stereo not given), the figures for the “robust z score of cell number” value in test [1] (siRNA: siRpgrip1l) and in test [1] (siRNA: siScr) were -21.7 ± 12 and -0.565 ± 0.39, respectively. Besides, the “robust z score of cilia incidence” value in test [2] is 0.493 ± 8; in test [3] it was -7.51 ± 2.5.
As to `O=C1c2ccccc2CCC1CNCCc1ccc(O)cc1` (stereo not given) [HEAT hydrochloride], the “robust z score of cell number” value is -45 ± 29 in test [1] (siRNA: siRpgrip1l) and -75 ± 61 in test [1] (siRNA: siScr). For the same molecule, the figures for the “robust z score of cilia incidence” value in test [2] and in test [3] were -1.6 ± 0.54 and -17 ± 0.86, respectively.
On the same counts, the results for `c1ccc(COCCCc2c[nH]cn2)cc1` [Proxyfan Oxalate] are -11.2 ± 8.5, -2.08 ± 4.4, -0.884 ± 0.26 and -2.57.
In the same order, the values of `Oc1cc2c(cc1O)C(c1ccccc1)CNCC2` (stereo not given) are -3.34 ± 0.55, -3.11 ± 4.4, -0.905 ± 0.37 and -8.22 ± 0.15.
On to `Cc1ccc(NC(=O)C(C)C)cc1C1CCN(Cc2ccc(Oc3ccc(F)c(F)c3)cc2)CC1`, for which the “robust z score of cell number” value in test [1] (siRNA: siRpgrip1l) was -31 ± 29; in test [1] (siRNA: siScr), -14.5 ± 13. Also, the “robust z score of cilia incidence” value was -20.9 ± 9.5 in test [2] and -25.2 ± 3.4 in test [3].
On the same counts, the results for `CCCOc1ccc(Br)cc1-c1cc(-c2ccc(Cl)cc2)[nH]c1-c1ccncc1` are -6.67 ± 4.2, -1.22 ± 0.98, 3.72 ± 3 and -10.1 ± 5.
Consider `c1cc(CN2CCCCC2)cc(OCCCNc2nc3ccccc3s2)c1` [Zolantidine dimaleate], for which the “robust z score of cell number” value in test [1] (siRNA: siRpgrip1l) is -30.4 ± 17; in test [1] (siRNA: siScr) it was -14.7 ± 2.3. The “robust z score of cilia incidence” value in test [2] is -14.2 ± 1.9; in test [3] it was -34.8 ± 4.1.
